Patent US11096928B2, “Pharmaceutical composition” (WUHAN LL SCIENCE AND TECHNOLOGY DEVELOPMENT CO., LTD., priority 2016, dated 2021)
Some of these results come from one statement about several compounds together.

Test system: spontaneously hypertensive rats
Assay: Antihypertensive efficacy test of the compound 1K in spontaneously hypertensive rats
Assay type: in vivo, rat
Conditions: SHR, intragastric, 1 mg/kg
Description: 12-week-old spontaneously hypertensive rats (hereinafter referred to as SHR, purchased from Beijing Weitong Lihua Experimental Animal Technology Co., Ltd.) were anesthetized with 2.5% sodium pentobarbital for intraperitoneal injection. After that, the blood pressure sensing catheter of hypertension implant was inserted into their abdominal aorta, while the implant was fixed to the abdominal wall, and then postoperative daily care was performed after suturing. Rats with systolic blood pressure exceeding 160 mm Hg were divided into 3 groups (control group, compound 1 group and compound 1K group), wherein each group has 8 rats. The control group was administrated 0.5% sodium carboxymethyl cellulose (hereinafter referred to as CMC-Na); the compound 1 group and the compound 1K group were respectively administered the compound 1 and the compound 1K, both of which were dissolved by 0.5% CMC-Na, by intragastric administration, at a dose of 1 mg/kg (calculated by the effective dose of valsartan) and a volume calculated by 4 mL/kg. The systolic blood pressure and heart rate of SHR were compared before and after administration (the systolic blood pressure and heart rate of SHR before administration as reference value), which were detected three times at each time point with the average value recorded.

Q: How did the “time at which the drug efficacy peaks (systolic blood pressure)” value turn out when `CCOc1nc2cccc(C(=O)OC(C)OC(=O)OCc3nc(C)c(C)nc3C)c2n1Cc1ccc(-c2ccccc2-c2noc(=O)[nH]2)cc1` (stereo not shown) [Compound 1] was run?
A: Its value is 5-7 hours after administration.
